The values below come from publication PMC9334269.

By UniProt entry, the sequences of proteins in these tests, tags left out.
UniProt Q86WV6: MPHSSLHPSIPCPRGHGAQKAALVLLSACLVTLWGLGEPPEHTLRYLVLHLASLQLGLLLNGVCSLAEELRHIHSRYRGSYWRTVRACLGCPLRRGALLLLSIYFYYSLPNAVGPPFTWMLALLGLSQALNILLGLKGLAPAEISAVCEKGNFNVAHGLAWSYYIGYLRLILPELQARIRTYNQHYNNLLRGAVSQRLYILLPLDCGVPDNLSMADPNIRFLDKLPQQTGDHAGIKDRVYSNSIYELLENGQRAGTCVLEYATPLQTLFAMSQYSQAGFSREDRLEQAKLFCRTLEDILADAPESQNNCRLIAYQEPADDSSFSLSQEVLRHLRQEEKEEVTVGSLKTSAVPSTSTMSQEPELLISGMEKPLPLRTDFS
UniProt Q13772: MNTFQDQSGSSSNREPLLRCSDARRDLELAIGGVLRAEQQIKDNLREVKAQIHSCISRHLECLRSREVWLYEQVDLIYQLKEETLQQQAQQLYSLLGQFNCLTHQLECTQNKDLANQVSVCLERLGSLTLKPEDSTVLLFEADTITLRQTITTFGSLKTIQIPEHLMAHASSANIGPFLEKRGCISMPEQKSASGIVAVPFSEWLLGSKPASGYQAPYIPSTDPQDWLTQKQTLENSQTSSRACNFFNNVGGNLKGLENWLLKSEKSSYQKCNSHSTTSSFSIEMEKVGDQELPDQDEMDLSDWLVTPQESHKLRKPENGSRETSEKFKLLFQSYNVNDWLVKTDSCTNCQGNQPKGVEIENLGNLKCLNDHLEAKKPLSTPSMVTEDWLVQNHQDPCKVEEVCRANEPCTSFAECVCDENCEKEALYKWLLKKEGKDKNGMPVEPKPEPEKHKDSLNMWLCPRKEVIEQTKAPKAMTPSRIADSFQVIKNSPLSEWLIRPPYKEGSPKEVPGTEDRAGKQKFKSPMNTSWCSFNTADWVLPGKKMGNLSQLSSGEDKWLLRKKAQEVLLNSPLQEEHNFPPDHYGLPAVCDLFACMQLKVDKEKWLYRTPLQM

Results are given in words; binding and its absence hold for the method and conditions named. Binding seen in cells or lysates may run through a third protein. These calls come from enrichment with a bait or labelling near it, and not all partners need be listed. For some assays here: A no says only that the protein was not detected with the bait.

The target in test [1] is endogenous STING (human PBMCs) (human (endogenous in PBMCs)) (UniProt Q86WV6). As to the kind of experiment: co-IP + affinity purification with mass spectrometry; PBMCs from healthy subjects; IP with anti-STING and anti-NCOA4, immunoblot; anti-STING immunoprecipitates also analysed by LC-MS/MS.
For test [2] the target is unchanged. Put plainly: co-IP + affinity purification with mass spectrometry; PBMCs from patients with sepsis; IP with anti-STING and anti-NCOA4, immunoblot; anti-STING immunoprecipitates also analysed by LC-MS/MS. (In general: A western blot detects proteins with antibodies after separation by electrophoresis.)

Consider “endogenous NCOA4 (human PBMCs) (from UniProt Q13772 1-614)”, for which the binding entry in test [1] is “no binding (only PBMCs from healthy subjects)”; in test [2] it was “binds”.
